Test results as given in patent publication US20190194329A1 (AbbVie / Abbott, published 2019).
These are yes or no findings as the source states them, for the method shown. Some entries that bind do so weakly or less than the wild type. Sequences can lack the tags named with a protein.

Target: T1, His-tagged ECD of mouse 4-1BB (mouse, UniProt P20334 24-187)
T1 construct: also called murine 4-1BB; mu4-1BB; not shown: His tag
T1 sequence: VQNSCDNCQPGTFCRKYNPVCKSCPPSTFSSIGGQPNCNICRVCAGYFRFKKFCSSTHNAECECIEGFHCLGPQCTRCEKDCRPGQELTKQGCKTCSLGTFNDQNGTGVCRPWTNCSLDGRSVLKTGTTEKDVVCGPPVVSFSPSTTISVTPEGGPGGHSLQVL
Assay: SPR (Biacore)

B1: Rat TABBY108 with rat IgG1 constant (antibody, V domains shown)
VH: EIQLQESGPGLVRPSQSLSLACSVTGYTITSAYDWSWIRKFPGNKMEWMGYIAYIGFTNSNPSLKSRISITRDTSKNQFFLQLKSVTTEDTATYYCARWSSYIPRYFDFWGPGTMVTVSS
VL: QAVLTQPNSVSTSLGSTVKLSCTITSGNIEDNFVHWYQHYEGRSPTTMIHNDDKRPDGVPDRFSGSIDSSSNSAFLTINNVEIEDEAIYFCHSYVSSINIFGGGTKLTVL
- binding: binds
